Out of some 330,000 compounds screened, about 7,700 (2.3%) were called active. This list was built around the results that the source calls inconclusive (neither active nor inactive); the mix of calls is not that of the screen. Calls come from the whole dose curve; as a rule, active = well fitted inhibition curve with a large enough effect; inconclusive = small, poorly fitted or top-dose-only effect, or effect the other way; inactive = flat fitted curve, though single readings scatter. Where the call is inconclusive, the potency comes from a doubtful curve fit.
Assay: qHTS screen for small molecules that inhibit ELG1-dependent DNA repair in human embryonic kidney (HEK293T) cells expressing luciferase-tagged ELG1; note: nearly all actives have a fitted effect of over 55% in size
Conditions: HEK293T ELG1-luciferase reporter, luminescence, 16 h, DNA damage induced by 5-fluorouridine; series mostly up to 46.1 µM
How it was run: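 DMSO vehicle served as the neutral condition. Each well held 2,000 cells given 5-fluorouridine plus compound; after 16 hr at 37 °C/5% CO2, ONE-Glo was added and luciferase measured 30 min later.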
Potency is the fitted concentration of half-maximal effect.

Structure (SMILES)	Potency
Cc1nc(N2CCN(C(=O)COc3ccccc3)CC2)c2c(C)c(C)sc2n1	inconclusive: 18.4 µM [inhibitor, partial curve]
COc1ccc(C2CC(=O)Nc3sc(=N)c4c(N)c(C#N)c(N)nc4c32)cc1OC (stereo unspecified)	inconclusive: 25.9 µM [inhibitor, single point]
Cc1[nH]n(-c2ccccc2)c(=O)c1C(=O)c1ccc([N+](=O)[O-])cc1	inactive
O=C(Nc1cccc(S(=O)(=O)N2CCCCCC2)c1)c1ccc(Cl)nc1	active: 20.6 µM
CC(C)Oc1ccc(C(=O)NC2CCCCC2)cc1	inconclusive: 16.4 µM [activator, partial curve]
Cc1ccccc1-n1nc2c(c1NC(=O)CC(C)C)CS(=O)C2 (stereo unspecified)	inconclusive: 29.1 µM [activator, partial curve, poor fit]
CCOC(=O)Cc1cc(=O)n2[nH]c(-c3ccc(C)cc3)cc2n1	inconclusive: 18.4 µM [activator, single point]
O=C(NCc1cccs1)C1CCN(c2nc3ccccc3o2)CC1	inactive
CC1=NN(C(=O)c2cccc(Cn3nc(C)c([N+](=O)[O-])c3C)c2)C(O)(C(F)(F)F)C1 (stereo unspecified)	inactive
CCOc1cc(C(F)(F)F)cnc1/C(N)=N/O	inactive
Cc1ccccc1Cn1ccc(NC(=O)c2nn3cccnc3c2Cl)n1	inconclusive: 20.6 µM [activator, single point]
CS(=O)(=O)c1nc(S(=O)(=O)c2ccc(Cl)cc2)c(N2CCC(C(N)=O)CC2)s1	inactive
CC1CN(C(=O)N2c3ccccc3Sc3ccccc32)CC(C)O1 (stereo unspecified)	inactive
Cc1cc(C)n(CCC(=O)N/N=C/c2ccc(Br)c([N+](=O)[O-])c2)n1	inconclusive: 20.6 µM [activator, single point]
O=C(Nc1nc2ccccc2[nH]1)c1ccccc1F	inconclusive: 0.0731 µM [activator, full curve, poor fit]
O=C(CCCC1=NS(=O)(=O)c2ccccc2N1)N1CCN(c2ccc(Cl)cc2)CC1	inconclusive: 23.1 µM [inhibitor, partial curve, poor fit]
O=C(COc1cccc(NC(=O)c2cccc([N+](=O)[O-])c2)c1)c1ccc(Br)cc1	active: 9.2 µM
CC1CCCN(C(=O)c2ccc(-c3ccccc3Cl)o2)C1 (stereo unspecified)	inconclusive: 9.2 µM [activator, partial curve]
Cc1csc(NC(=O)c2ccc(S(=O)(=O)N(C)c3ccccc3)cc2)n1	active: 23.1 µM
O=C(NCC1CCCO1)c1sc2ccccc2c1Cl (stereo unspecified)	inconclusive: 11.6 µM [activator, partial curve]
C=CCNC(=O)C1CCN(S(=O)(=O)c2cccs2)CC1	inactive
CCOc1ccc(CCNC(=O)COC(=O)c2cccc(N(C)C)c2)cc1OCC	inconclusive: 0.517 µM [activator, full curve, poor fit]
Cc1cccc(CNC(=O)c2cc(S(=O)(=O)N3CCOCC3)cn2C)c1	inactive

An excerpt of these results, as comma-separated lines:
Structure (SMILES),Potency
Cc1nc(N2CCN(C(=O)COc3ccccc3)CC2)c2c(C)c(C)sc2n1,"inconclusive: 18.4 µM [inhibitor, partial curve]"
O=C(Nc1cccc(S(=O)(=O)N2CCCCCC2)c1)c1ccc(Cl)nc1,active: 20.6 µM
CC(C)Oc1ccc(C(=O)NC2CCCCC2)cc1,"inconclusive: 16.4 µM [activator, partial curve]"
CCOC(=O)Cc1cc(=O)n2[nH]c(-c3ccc(C)cc3)cc2n1,"inconclusive: 18.4 µM [activator, single point]"
O=C(NCc1cccs1)C1CCN(c2nc3ccccc3o2)CC1,inactive
CCOc1cc(C(F)(F)F)cnc1/C(N)=N/O,inactive
CS(=O)(=O)c1nc(S(=O)(=O)c2ccc(Cl)cc2)c(N2CCC(C(N)=O)CC2)s1,inactive
O=C(Nc1nc2ccccc2[nH]1)c1ccccc1F,"inconclusive: 0.0731 µM [activator, full curve, poor fit]"
O=C(COc1cccc(NC(=O)c2cccc([N+](=O)[O-])c2)c1)c1ccc(Br)cc1,active: 9.2 µM

Further results:

Structure (SMILES)	Potency
Cc1nc2c(-c3ccccc3)cnn2c(N)c1-c1ccccc1	inconclusive: 0.366 µM [activator, full curve]
COc1ccc(Cc2nnc(NC(=O)C3CCCO3)s2)cc1 (stereo unspecified)	inconclusive: 14.6 µM [activator, single point]
COc1ccc(C(CNC(=O)c2oc3ccc(OC)cc3c2C)N2CCCC2)cc1 (stereo unspecified)	inactive
CN(c1cccc(NC(=O)CN(c2cccc(Cl)c2)S(=O)(=O)c2ccccc2)c1)S(C)(=O)=O	active: 25.9 µM
C/C(=N\Nc1nc2ccccc2[nH]1)c1ccccn1	inconclusive: 2.91 µM [activator, partial curve]
Nc1ccccc1-c1nc2ccccc2[nH]1	inconclusive: 18.4 µM [activator, partial curve]
O=C(Cc1c(O)c2ccccc2[nH]c1=O)NC1CCCCCCC1	inactive
Cc1cc(-n2c(C)cc(C(=S)N3CCOCC3)c2C)ccc1Br	inconclusive: 25.9 µM [inhibitor, single point]
COCCOc1ccc(C(F)(F)F)cc1NC(=O)CN1C(=O)NC2(CCc3ccccc32)C1=O (stereo unspecified)	inactive
O=c1oc2c(CN3CCOCC3)c(O)ccc2c2ccccc12	inconclusive: 10.3 µM [activator, partial curve]
CC(C)(C)c1cc(/C=N/NC(=O)C[n+]2ccccc2)cc(C(C)(C)C)c1O	inactive
COc1ccc(CNC(=O)CN2C(=O)NC(C)(c3ccc(C(C)(C)C)cc3)C2=O)cc1 (stereo unspecified)	inconclusive: 23.1 µM [inhibitor, partial curve, poor fit]
Cc1ccc(-c2cnc(N)n2C)cc1C	inconclusive: 14.6 µM [activator, partial curve, poor fit]
O=C(N/N=C/c1cccs1)[C@H]1C[C@@H]1c1ccccc1	inactive
CCOc1cccc2cc(-c3csc(NC(=O)CCC(=O)NCCCN4CCC(C)CC4)n3)c(=O)oc12	inconclusive: 5.8 µM [activator, partial curve]
CCN1C(=O)c2ccc(C(=O)Nc3ncc(C)s3)cc2C1=O	inconclusive: 20.6 µM [activator, partial curve]
N#CC(=C1SC=CS1)c1nc(-c2ccccc2)cs1	inconclusive: 6.51 µM [activator, partial curve]
Cc1ccc(C(=O)Oc2cccc(-n3cnnn3)c2)cc1	inconclusive: 29.1 µM [activator, single point]
Cc1cccc(/C=C(\C(=O)C(=O)O)c2ccc3ccccc3n2)c1	inconclusive: 13 µM [activator, partial curve]
CCSc1nc(-c2ccccc2)nc(C(Cl)Cl)n1	active: 18.4 µM
O=C(N/N=C/c1ccc2ncccc2c1)c1cccc([N+](=O)[O-])c1	inactive
O=S(=O)(Nc1ccc(N2CCCCC2)cc1)c1ccc(F)cc1	inconclusive: 10.3 µM [inhibitor, partial curve]
CCOC(=O)c1ccc(NC(=O)N2CCN(c3ccccn3)CC2)cc1	inconclusive: 25.9 µM [inhibitor, single point]

Source: PubChem BioAssay AID504467 (National Center for Advancing Translational Sciences (NCATS), 2011)
